# The supplement of paper PMC8728848
# The list shows a part of the results.
# B1: GS13814A-bth-462-26-462 (Bacteroides thetaiotaomicron) (protein)
# chain: DDRDNLMVNDQIGLLHSTYTETEIFRGMDTPYQLFVIKSGKGKQETEVSISVDETVLQSYNTDNGTSIQLLPSDCYTILQPALRLNDSDYRKAFDIKWNADRLSDLLSTGKEYGLPIQMSVVQNFISADDERLKTIIVPTIKEPYLQMDVPGMSPVTDFMPTFGDLNERELFVKIRTNYSNDEDISFQIEVDPQLVIDYNTAHGTAYKMLPESSFTVDNKGVILTGMKETFIKIKYHKKGLIPEEGTYLFGDYVLPLRITSVSKYGISPDAASKLYTVKFQPDPIDKKGWSVIDFNNCCTQDGGWYLNMGWGVESLIDNNPGTQWLCRWDVKEPLPYYFVFDMGKEYTLFRFGFANPVAPAAHVWAGTSKAGYVEASIDNENWVKLKDWTSPKIGEPNVNMDVPATQARYIRFVITDTYPTYDGLRVSLGEVYAWGM
# Experiments:
# Assay in all cases: glycan array binding signal (z-score within array); higher = stronger binding
# Details in all cases: glycan notation: IUPAC condensed, linker removed
# [1] = target: Neu5Ac(a2-6)Gal(b1-3)GlcNAc(b1-3)[Gal(b1-4)GlcNAc(b1-6)]Gal(b1-4)Glc
# Procedure, shortened: (§1)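 Glycan array binding is given as a within-array Z-score, which can be read as non-binding when negative. The arrays, 3228 of them, came from the Consortium for Functional Glycomics database and were retained only where the protein sequence was available. Z-scores were averaged across arrays of the same protein sequence at different concentrations or buffers and across linkers.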
# Neu5Ac(a2-6)Gal(b1-4)Glc = target: Neu5Ac(a2-6)Gal(b1-4)Glc
# Procedure, shortened: as §1
# [2] = target: Neu5Ac(a2-6)Gal(b1-4)GlcNAc
# Procedure, shortened: as §1
# [3] = target: Neu5Ac(a2-6)Gal(b1-4)GlcNAc(b1-2)Man
# Procedure, shortened: as §1
# [4] = target: Neu5Ac(a2-6)Gal(b1-4)GlcNAc(b1-2)Man(a1-3)Man(b1-4)GlcNAc(b1-4)GlcNAc
# Procedure, shortened: as §1
# [5] = target: Neu5Ac(a2-6)Gal(b1-4)GlcNAc(b1-2)Man(a1-3)[Gal(b1-4)GlcNAc(b1-2)Man(a1-6)]Man(b1-4)GlcNAc(b1-4)GlcNAc
# Procedure, shortened: as §1
# [6] = target: Neu5Ac(a2-6)Gal(b1-4)GlcNAc(b1-2)Man(a1-3)[GlcNAc(b1-2)Man(a1-6)]Man(b1-4)GlcNAc(b1-4)GlcNAc
# Procedure, shortened: as §1
# [7] = target: Neu5Ac(a2-6)Gal(b1-4)GlcNAc(b1-2)Man(a1-3)[GlcNAc(b1-4)][Neu5Ac(a2-6)Gal(b1-4)GlcNAc(b1-2)Man(a1-6)]Man(b1-4)GlcNAc(b1-4)GlcNAc
# Procedure, shortened: as §1
# [8] = target: Neu5Ac(a2-6)Gal(b1-4)GlcNAc(b1-2)Man(a1-3)[Man(a1-6)]Man(b1-4)GlcNAc(b1-4)GlcNAc
# Procedure, shortened: as §1
# [9] = target: Neu5Ac(a2-6)Gal(b1-4)GlcNAc(b1-2)Man(a1-3)[Neu5Ac(a2-3)Gal(b1-4)GlcNAc(b1-2)Man(a1-6)]Man(b1-4)GlcNAc(b1-4)GlcNAc
# Procedure, shortened: as §1
# [10] = target: Neu5Ac(a2-6)Gal(b1-4)GlcNAc(b1-2)Man(a1-3)[Neu5Ac(a2-6)Gal(b1-4)GlcNAc(b1-2)Man(a1-6)]Man(b1-4)GlcNAc(b1-4)GlcNAc
# Procedure, shortened: as §1
# [11] = target: Neu5Ac(a2-6)Gal(b1-4)GlcNAc(b1-2)Man(a1-3)[Neu5Ac(a2-6)Gal(b1-4)GlcNAc(b1-2)Man(a1-6)]Man(b1-4)GlcNAc(b1-4)[Fuc(a1-6)]GlcNAc
# Procedure, shortened: as §1
# [12] = target: Neu5Ac(a2-6)Gal(b1-4)GlcNAc(b1-2)Man(a1-6)Man(b1-4)GlcNAc(b1-4)GlcNAc
# Procedure, shortened: as §1
# [13] = target: Neu5Ac(a2-6)Gal(b1-4)GlcNAc(b1-2)Man(a1-6)[Gal(b1-4)GlcNAc(b1-2)Man(a1-3)]Man(b1-4)GlcNAc(b1-4)GlcNAc
# Procedure, shortened: as §1
# [14] = target: Neu5Ac(a2-6)Gal(b1-4)GlcNAc(b1-2)Man(a1-6)[GlcNAc(b1-2)Man(a1-3)]Man(b1-4)GlcNAc(b1-4)GlcNAc
# Procedure, shortened: as §1
# [15] = target: Neu5Ac(a2-6)Gal(b1-4)GlcNAc(b1-2)Man(a1-6)[Man(a1-3)]Man(b1-4)GlcNAc(b1-4)GlcNAc
# Procedure, shortened: as §1
# [16] = target: Neu5Ac(a2-6)Gal(b1-4)GlcNAc(b1-2)[Neu5Ac(a2-6)Gal(b1-4)GlcNAc(b1-4)]Man(a1-3)[GlcNAc(b1-4)][Neu5Ac(a2-6)Gal(b1-4)GlcNAc(b1-2)[Neu5Ac(a2-6)Gal(b1-4)GlcNAc(b1-6)]Man(a1-6)]Man(b1-4)GlcNAc(b1-4)GlcNAc
# Procedure, shortened: as §1
# [17] = target: Neu5Ac(a2-6)Gal(b1-4)GlcNAc(b1-2)[Neu5Ac(a2-6)Gal(b1-4)GlcNAc(b1-4)]Man(a1-3)[GlcNAc(b1-4)][Neu5Ac(a2-6)Gal(b1-4)GlcNAc(b1-4)Man(a1-6)]Man(b1-4)GlcNAc(b1-4)GlcNAc
# Procedure, shortened: as §1
# [18] = target: Neu5Ac(a2-6)Gal(b1-4)GlcNAc(b1-2)[Neu5Ac(a2-6)Gal(b1-4)GlcNAc(b1-6)]Man(a1-6)[Neu5Ac(a2-6)Gal(b1-4)GlcNAc(b1-2)Man(a1-3)][GlcNAc(b1-4)]Man(b1-4)GlcNAc(b1-4)GlcNAc
# Procedure, shortened: as §1
# [19] = target: Neu5Ac(a2-6)Gal(b1-4)GlcNAc(b1-3)Gal(b1-3)GlcNAc
# Procedure, shortened: as §1
# [20] = target: Neu5Ac(a2-6)Gal(b1-4)GlcNAc(b1-3)Gal(b1-4)GlcNAc
# Procedure, shortened: as §1
# [21] = target: Neu5Ac(a2-6)Gal(b1-4)GlcNAc(b1-3)Gal(b1-4)GlcNAc(b1-2)Man(a1-3)[Neu5Ac(a2-6)Gal(b1-4)GlcNAc(b1-3)Gal(b1-4)GlcNAc(b1-2)Man(a1-6)]GalNAc
# Procedure, shortened: as §1
# [22] = target: Neu5Ac(a2-6)Gal(b1-4)GlcNAc(b1-3)Gal(b1-4)GlcNAc(b1-3)Gal(b1-4)GlcNAc
# Procedure, shortened: as §1
# [23] = target: Neu5Ac(a2-6)Gal(b1-4)GlcNAc(b1-3)Gal(b1-4)GlcNAc(b1-3)Gal(b1-4)GlcNAc(b1-2)Man(a1-3)[Neu5Ac(a2-6)Gal(b1-4)GlcNAc(b1-3)Gal(b1-4)GlcNAc(b1-3)Gal(b1-4)GlcNAc(b1-2)Man(a1-6)]GalNAc
# Procedure, shortened: as §1
# [24] = target: Neu5Ac(a2-6)Gal(b1-4)GlcNAc(b1-3)Gal(b1-4)GlcNAc(b1-3)GalNAc
# Procedure, shortened: as §1
# [25] = target: Neu5Ac(a2-6)Gal(b1-4)GlcNAc(b1-3)Gal(b1-4)GlcNAc(b1-3)[Neu5Ac(a2-6)Gal(b1-4)GlcNAc(b1-3)Gal(b1-4)GlcNAc(b1-6)]GalNAc
# Procedure, shortened: as §1
# [26] = target: Neu5Ac(a2-6)Gal(b1-4)GlcNAc(b1-3)Gal(b1-4)GlcNAc(b1-6)[Gal(b1-3)]GalNAc
# Procedure, shortened: as §1
# [27] = target: Neu5Ac(a2-6)Gal(b1-4)GlcNAc(b1-3)Gal(b1-4)[Fuc(a1-3)]GlcNAc(b1-3)Gal(b1-4)[Fuc(a1-3)]GlcNAc
# Procedure, shortened: as §1
# [28] = target: Neu5Ac(a2-6)Gal(b1-4)GlcNAc(b1-3)GalNAc
# Procedure, shortened: as §1
# [29] = target: Neu5Ac(a2-6)Gal(b1-4)GlcNAc(b1-3)[Neu5Ac(a2-6)Gal(b1-4)GlcNAc(b1-6)]GalNAc
# Procedure, shortened: as §1
# [30] = target: Neu5Ac(a2-6)Gal(b1-4)GlcNAc(b1-6)GalNAc
# Procedure, shortened: as §1
# [31] = target: Neu5Ac(a2-6)Gal(b1-4)GlcNAc(b1-6)[Gal(b1-3)GlcNAc(b1-3)]Gal(b1-4)Glc
# Procedure, shortened: as §1
# [32] = target: Neu5Ac(a2-6)Gal(b1-4)GlcNAc(b1-6)[Gal(b1-3)]GalNAc
# Procedure, shortened: as §1
# [33] = target: Neu5Ac(a2-6)Gal(b1-4)GlcNAc6S
# Procedure, shortened: as §1
# Neu5Ac(a2-6)GalNAc = target: Neu5Ac(a2-6)GalNAc
# Procedure, shortened: as §1
# [34] = target: Neu5Ac(a2-6)GalNAc(b1-4)GlcNAc
# Procedure, shortened: as §1
# [35] = target: Neu5Ac(a2-6)GalNAc(b1-4)GlcNAc6S
# Procedure, shortened: as §1
# [36] = target: Neu5Ac(a2-6)GlcNAc(b1-4)GlcNAc
# Procedure, shortened: as §1
binder,measurement,setting,value
B1,glycan array binding signal (z-score),[1],-0.133
same,glycan array binding signal (z-score),Neu5Ac(a2-6)Gal(b1-4)Glc,0.642
same,glycan array binding signal (z-score),[2],-0.069
same,glycan array binding signal (z-score),[3],-1.09
same,glycan array binding signal (z-score),[4],-0.925
same,glycan array binding signal (z-score),[5],-0.242
same,glycan array binding signal (z-score),[6],0.48
same,glycan array binding signal (z-score),[7],0.199
same,glycan array binding signal (z-score),[8],0.119
same,glycan array binding signal (z-score),[9],-0.153
same,glycan array binding signal (z-score),[10],-0.189
same,glycan array binding signal (z-score),[11],1.84
same,glycan array binding signal (z-score),[12],-0.709
same,glycan array binding signal (z-score),[13],0.333
same,glycan array binding signal (z-score),[14],-0.713
same,glycan array binding signal (z-score),[15],-1.12
same,glycan array binding signal (z-score),[16],-1.17
same,glycan array binding signal (z-score),[17],0.153
same,glycan array binding signal (z-score),[18],-0.945
same,glycan array binding signal (z-score),[19],-0.896
same,glycan array binding signal (z-score),[20],-0.789
same,glycan array binding signal (z-score),[21],-0.118
same,glycan array binding signal (z-score),[22],0.951
same,glycan array binding signal (z-score),[23],-0.144
same,glycan array binding signal (z-score),[24],-0.183
same,glycan array binding signal (z-score),[25],-1.35
same,glycan array binding signal (z-score),[26],-0.806
same,glycan array binding signal (z-score),[27],-0.215
same,glycan array binding signal (z-score),[28],-0.883
same,glycan array binding signal (z-score),[29],-0.877
same,glycan array binding signal (z-score),[30],-0.162
same,glycan array binding signal (z-score),[31],-0.607
same,glycan array binding signal (z-score),[32],-1.67
same,glycan array binding signal (z-score),[33],-0.329
same,glycan array binding signal (z-score),Neu5Ac(a2-6)GalNAc,-0.493
same,glycan array binding signal (z-score),[34],-0.674
same,glycan array binding signal (z-score),[35],-0.463
same,glycan array binding signal (z-score),[36],-0.915
